Results are given in words; binding and its absence hold for the method and conditions named. Binding seen in cells or lysates may run through a third protein.
Molecular target: endogenous Bcl-2 (human (endogenous in HeLa)) (UniProt P10415)
Experiment: co-IP; in vivo co-immunoprecipitation with an anti-Bcl-2 mAb from extracts of HeLa cells transfected with the indicated plasmids

Sequences of proteins named here, by UniProt entry; tags and fusion partners are left off. A change or cut given only in a name is not applied to a line headed by its entry. A line that says so, or that is headed by a name, gives the form on record, which may keep a tag or linker.
UniProt P10415: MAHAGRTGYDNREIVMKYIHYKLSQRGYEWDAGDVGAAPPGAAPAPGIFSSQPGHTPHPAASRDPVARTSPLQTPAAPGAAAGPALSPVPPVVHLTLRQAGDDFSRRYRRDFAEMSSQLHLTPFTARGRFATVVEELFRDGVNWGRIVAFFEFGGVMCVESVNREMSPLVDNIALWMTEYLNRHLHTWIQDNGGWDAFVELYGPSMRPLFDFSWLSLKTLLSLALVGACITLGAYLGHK
survivin-ΔEx3(ΔBH2) (O15392-3, form named): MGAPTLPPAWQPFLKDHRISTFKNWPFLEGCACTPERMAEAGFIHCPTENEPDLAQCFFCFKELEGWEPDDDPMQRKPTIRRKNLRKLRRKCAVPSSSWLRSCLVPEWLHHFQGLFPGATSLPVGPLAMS

“survivin-ΔEx3(ΔBH2) (from UniProt O15392-3 1-137)” was tested, and the binding was “no binding”.
